{
  "source": "patent US4341768A",
  "about": "“Antibiotic compounds” (priority 1981, dated 1982)",
  "key": {"Proteus vulgalis A9526": {"system": "Proteus vulgalis A9526", "assay": "MIC, two-fold serial dilution, Mueller-Hinton agar", "assay_type": "cell-based", "settings": "overnight 37° C."}, "[1]": {"system": "Klebsiella pneumoniae D-11", "assay": "MIC, two-fold serial dilution, Mueller-Hinton agar", "assay_type": "cell-based", "settings": "overnight 37° C."}, "[2]": {"system": "Staphylococcus aureus 209P", "assay": "MIC, two-fold serial dilution, Mueller-Hinton agar", "assay_type": "cell-based", "settings": "overnight 37° C."}, "[3]": {"system": "Pseudomonas putida KUH-11", "assay": "MIC, activity against Pseudomonas species", "assay_type": "cell-based"}, "[4]": {"system": "Pseudomonas aeruginosa A15194", "assay": "MIC, activity against Pseudomonas species", "assay_type": "cell-based"}, "Pseudomonas species": {"system": "Pseudomonas species", "assay": "In vitro activity against Pseudomonas species, summary", "assay_type": "cell-based"}, "[5]": {"system": "Pseudomonas aeruginosa GN 4925", "assay": "MIC, activity against Pseudomonas species", "assay_type": "cell-based"}, "Escherichia coli NIHJ": {"system": "Escherichia coli NIHJ", "assay": "MIC, two-fold serial dilution, Mueller-Hinton agar", "assay_type": "cell-based", "settings": "overnight 37° C."}, "[6]": {"system": "Pseudomonas melanogenum A20817", "assay": "MIC, activity against Pseudomonas species", "assay_type": "cell-based"}, "[7]": {"system": "E. coli, K. pneumoniae and P. aeruginosa", "assay": "In vivo antibacterial activity in experimental infections of mice, summary", "settings": "im"}, "Micrococcus flavus D-12": {"system": "Micrococcus flavus D-12", "assay": "MIC, two-fold serial dilution, Mueller-Hinton agar", "assay_type": "cell-based", "settings": "overnight 37° C."}, "Escherichia coli Juhl": {"system": "Escherichia coli Juhl", "assay": "MIC, two-fold serial dilution, Mueller-Hinton agar", "assay_type": "cell-based", "settings": "overnight 37° C."}, "[8]": {"system": "Pseudomonas putida AKH-15", "assay": "MIC, activity against Pseudomonas species", "assay_type": "cell-based"}, "Proteus morganii A9553": {"system": "Proteus morganii A9553", "assay": "MIC, two-fold serial dilution, Mueller-Hinton agar", "assay_type": "cell-based", "settings": "overnight 37° C."}, "[9]": {"system": "Pseudomonas putida AKH-66", "assay": "MIC, activity against Pseudomonas species", "assay_type": "cell-based"}, "[10]": {"system": "Streptococcus faecalis B402-3", "assay": "MIC, two-fold serial dilution, Mueller-Hinton agar", "assay_type": "cell-based", "settings": "overnight 37° C."}, "[11]": {"system": "Pseudomonas cepacia SCH-15", "assay": "MIC, activity against Pseudomonas species", "assay_type": "cell-based"}, "[12]": {"system": "Pseudomonas maltophilia A21550", "assay": "MIC, activity against Pseudomonas species", "assay_type": "cell-based"}, "[13]": {"system": "Pseudomonas maltophilia AKH-81", "assay": "MIC, activity against Pseudomonas species", "assay_type": "cell-based"}, "[14]": {"system": "Salmonella enteritidis #4432", "assay": "MIC, two-fold serial dilution, Mueller-Hinton agar", "assay_type": "cell-based", "settings": "overnight 37° C."}, "Proteus mirabilis A9554": {"system": "Proteus mirabilis A9554", "assay": "MIC, two-fold serial dilution, Mueller-Hinton agar", "assay_type": "cell-based", "settings": "overnight 37° C."}, "[15]": {"system": "Pseudomonas maltophilia A21384", "assay": "MIC, activity against Pseudomonas species", "assay_type": "cell-based"}, "[16]": {"system": "Bacillus subtilis PCI 219", "assay": "MIC, two-fold serial dilution, Mueller-Hinton agar", "assay_type": "cell-based", "settings": "overnight 37° C."}, "[17]": {"system": "Shigella dysenteriae D-163", "assay": "MIC, two-fold serial dilution, Mueller-Hinton agar", "assay_type": "cell-based", "settings": "overnight 37° C."}, "[18]": {"system": "Pseudomonas aeruginosa A21428", "assay": "MIC, activity against Pseudomonas species", "assay_type": "cell-based"}, "[19]": {"system": "Pseudomonas maltophilia AKH-36", "assay": "MIC, activity against Pseudomonas species", "assay_type": "cell-based"}, "[20]": {"system": "Pseudomonas maltophilia A20620", "assay": "MIC, activity against Pseudomonas species", "assay_type": "cell-based"}, "[21]": {"system": "Pseudomonas aeruginosa D15", "assay": "MIC, activity against Pseudomonas species", "assay_type": "cell-based"}, "Sarcina lutea #1001": {"system": "Sarcina lutea #1001", "assay": "MIC, two-fold serial dilution, Mueller-Hinton agar", "assay_type": "cell-based", "settings": "overnight 37° C."}, "[22]": {"system": "Enterobacter cloacae A9654", "assay": "MIC, two-fold serial dilution, Mueller-Hinton agar", "assay_type": "cell-based", "settings": "overnight 37° C."}, "[23]": {"system": "Pseudomonas aeruginosa A15150", "assay": "MIC, activity against Pseudomonas species", "assay_type": "cell-based"}, "[24]": {"system": "Staphylococcus aureus Smith", "assay": "MIC, two-fold serial dilution, Mueller-Hinton agar", "assay_type": "cell-based", "settings": "overnight 37° C."}},
  "note": "Part of at least one peptide drawing is inferred or uncertain, most often the ends. Bridge positions count the residues as written; N and C are the ends. Square brackets hold non-standard residues; d marks the D form. Peptide text beside a SMILES is read from it. dDab = NCC[C@@H](N)C(=O)O; Dab = NCC[C@H](N)C(=O)O",
  "data": [
    {"molecule": "CC(C)C[C@@H]1NC(=O)[C@H](CCN)NC(=O)[C@H](CCN)NC(=O)[C@H](CC(C)C)NC(=O)[C@@H](Cc2ccccc2)NC(=O)[C@H](CCN)NC(=O)[C@@H](NC(=O)[C@H](N)CCN)CCNC1=O", "note": "[Bu-2470A] (H-[dDab][Dab][Dab][dF]L[Dab][Dab]L; lactam 2-C)", "values": [
      {"measurement": "MIC", "setting": "Proteus vulgalis A9526", "value": "> 100", "unit": "µg/mL"},
      {"measurement": "MIC", "setting": "[1]", "value": 50, "unit": "µg/mL"},
      {"measurement": "MIC", "setting": "[2]", "value": "> 100", "unit": "µg/mL"},
      {"measurement": "MIC", "setting": "[3]", "value": 6.3, "unit": "µg/mL"},
      {"measurement": "MIC", "setting": "[4]", "value": 6.3, "unit": "µg/mL"},
      {"measurement": "Activity against various Pseudomonas species", "setting": "Pseudomonas species; P. aeruginosa, P. cepacia, P. maltophilia, P. melanogenum, P. putida", "value": "active"},
      {"measurement": "Activity against Pseudomonas species relative to Bu-2470 B1 and B2", "setting": "Pseudomonas species; comparison with Bu-2470 B1 and B2", "value": "equally or somewhat more active"},
      {"measurement": "MIC", "setting": "[5]", "value": 6.3, "unit": "µg/mL"},
      {"measurement": "MIC", "setting": "Escherichia coli NIHJ", "value": 3.1, "unit": "µg/mL"},
      {"measurement": "MIC", "setting": "[6]", "value": 1.6, "unit": "µg/mL"},
      {"measurement": "In vivo activity in comparison with components B1 and B2", "setting": "[7]", "value": "relatively more active in vivo than in vitro"},
      {"measurement": "MIC", "setting": "Micrococcus flavus D-12", "value": 50, "unit": "µg/mL"},
      {"measurement": "MIC", "setting": "Escherichia coli Juhl", "value": 6.3, "unit": "µg/mL"},
      {"measurement": "MIC", "setting": "[8]", "value": 6.3, "unit": "µg/mL"},
      {"measurement": "MIC", "setting": "Proteus morganii A9553", "value": "> 100", "unit": "µg/mL"},
      {"measurement": "MIC", "setting": "[9]", "value": 12.5, "unit": "µg/mL"},
      {"measurement": "MIC", "setting": "[10]", "value": 50, "unit": "µg/mL"},
      {"measurement": "MIC", "setting": "[11]", "value": 50, "unit": "µg/mL"},
      {"measurement": "MIC", "setting": "[12]", "value": 0.8, "unit": "µg/mL"},
      {"measurement": "MIC", "setting": "[13]", "value": 0.4, "unit": "µg/mL"},
      {"measurement": "MIC", "setting": "[14]", "value": 12.5, "unit": "µg/mL"},
      {"measurement": "MIC", "setting": "Proteus mirabilis A9554", "value": "> 100", "unit": "µg/mL"},
      {"measurement": "MIC", "setting": "[15]", "value": 0.4, "unit": "µg/mL"},
      {"measurement": "MIC", "setting": "[16]", "value": 50, "unit": "µg/mL"},
      {"measurement": "MIC", "setting": "[17]", "value": 100, "unit": "µg/mL"},
      {"measurement": "MIC", "setting": "[18]", "value": 6.3, "unit": "µg/mL"},
      {"measurement": "MIC", "setting": "[19]", "value": 0.4, "unit": "µg/mL"},
      {"measurement": "MIC", "setting": "[20]", "value": 1.6, "unit": "µg/mL"},
      {"measurement": "MIC", "setting": "[21]", "value": 6.3, "unit": "µg/mL"},
      {"measurement": "MIC", "setting": "Sarcina lutea #1001", "value": 50, "unit": "µg/mL"},
      {"measurement": "MIC", "setting": "[22]", "value": "> 100", "unit": "µg/mL"},
      {"measurement": "MIC", "setting": "[23]", "value": 12.5, "unit": "µg/mL"},
      {"measurement": "MIC", "setting": "[24]", "value": "> 100", "unit": "µg/mL"}
    ]}
  ]
}
